Laboratory results from the supplement of paper PMC10849652.
Some of the results follow.

Amino acid sequences for entries named in this document (tags omitted). A change or cut given only in a name is not applied to a line headed by its entry.
UniProt Q9BQA1, whole entry, looked up: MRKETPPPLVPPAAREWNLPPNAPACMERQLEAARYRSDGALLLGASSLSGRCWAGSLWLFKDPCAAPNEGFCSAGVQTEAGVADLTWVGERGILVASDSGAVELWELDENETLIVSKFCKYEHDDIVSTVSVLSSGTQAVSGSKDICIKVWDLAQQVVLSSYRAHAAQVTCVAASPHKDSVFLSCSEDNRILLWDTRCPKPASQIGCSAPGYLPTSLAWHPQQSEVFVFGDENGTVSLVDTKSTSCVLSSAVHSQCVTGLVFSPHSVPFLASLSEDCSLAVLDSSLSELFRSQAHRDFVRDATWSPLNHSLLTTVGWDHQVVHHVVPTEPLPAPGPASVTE
UniProt A6NGB9: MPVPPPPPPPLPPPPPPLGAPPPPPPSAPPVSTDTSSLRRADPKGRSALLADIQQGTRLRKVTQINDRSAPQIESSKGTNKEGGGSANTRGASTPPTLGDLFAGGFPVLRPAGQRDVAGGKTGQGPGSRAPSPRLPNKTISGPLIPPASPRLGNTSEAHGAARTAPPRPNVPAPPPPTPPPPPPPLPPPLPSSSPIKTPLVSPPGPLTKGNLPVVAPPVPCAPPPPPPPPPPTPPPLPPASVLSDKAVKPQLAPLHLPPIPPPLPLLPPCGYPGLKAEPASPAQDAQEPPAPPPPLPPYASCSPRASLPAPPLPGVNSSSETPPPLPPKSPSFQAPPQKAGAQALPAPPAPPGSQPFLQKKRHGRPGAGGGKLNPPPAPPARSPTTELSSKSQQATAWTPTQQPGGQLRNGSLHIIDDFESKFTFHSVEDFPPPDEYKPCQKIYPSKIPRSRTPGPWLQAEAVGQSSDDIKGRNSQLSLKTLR
UniProt O00401, whole entry, looked up: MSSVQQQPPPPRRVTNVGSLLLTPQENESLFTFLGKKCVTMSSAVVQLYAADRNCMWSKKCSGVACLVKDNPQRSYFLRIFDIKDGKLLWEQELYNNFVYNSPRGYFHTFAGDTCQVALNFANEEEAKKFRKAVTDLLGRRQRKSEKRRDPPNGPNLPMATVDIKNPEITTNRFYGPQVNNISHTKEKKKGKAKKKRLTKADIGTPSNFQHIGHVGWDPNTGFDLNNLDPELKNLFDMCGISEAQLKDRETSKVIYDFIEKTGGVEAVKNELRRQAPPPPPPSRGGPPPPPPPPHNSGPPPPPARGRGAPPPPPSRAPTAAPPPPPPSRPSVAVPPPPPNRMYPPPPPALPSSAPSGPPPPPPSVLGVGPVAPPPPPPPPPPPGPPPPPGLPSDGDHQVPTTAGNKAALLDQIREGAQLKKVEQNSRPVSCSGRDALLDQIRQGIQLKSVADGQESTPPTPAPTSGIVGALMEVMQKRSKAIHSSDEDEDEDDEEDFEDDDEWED
UniProt Q3ZAQ7: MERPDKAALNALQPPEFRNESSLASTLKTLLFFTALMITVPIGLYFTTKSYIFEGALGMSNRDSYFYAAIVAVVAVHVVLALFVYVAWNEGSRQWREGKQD
UniProt Q9H9H4: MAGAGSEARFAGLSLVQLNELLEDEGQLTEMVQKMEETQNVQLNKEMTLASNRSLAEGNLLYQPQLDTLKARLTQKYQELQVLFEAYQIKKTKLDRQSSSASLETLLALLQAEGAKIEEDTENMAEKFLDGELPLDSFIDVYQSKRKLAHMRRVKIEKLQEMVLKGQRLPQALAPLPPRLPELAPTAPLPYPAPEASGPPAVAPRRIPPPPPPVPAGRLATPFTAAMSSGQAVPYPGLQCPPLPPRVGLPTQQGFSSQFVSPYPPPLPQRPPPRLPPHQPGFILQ
UniProt Q9BTA9: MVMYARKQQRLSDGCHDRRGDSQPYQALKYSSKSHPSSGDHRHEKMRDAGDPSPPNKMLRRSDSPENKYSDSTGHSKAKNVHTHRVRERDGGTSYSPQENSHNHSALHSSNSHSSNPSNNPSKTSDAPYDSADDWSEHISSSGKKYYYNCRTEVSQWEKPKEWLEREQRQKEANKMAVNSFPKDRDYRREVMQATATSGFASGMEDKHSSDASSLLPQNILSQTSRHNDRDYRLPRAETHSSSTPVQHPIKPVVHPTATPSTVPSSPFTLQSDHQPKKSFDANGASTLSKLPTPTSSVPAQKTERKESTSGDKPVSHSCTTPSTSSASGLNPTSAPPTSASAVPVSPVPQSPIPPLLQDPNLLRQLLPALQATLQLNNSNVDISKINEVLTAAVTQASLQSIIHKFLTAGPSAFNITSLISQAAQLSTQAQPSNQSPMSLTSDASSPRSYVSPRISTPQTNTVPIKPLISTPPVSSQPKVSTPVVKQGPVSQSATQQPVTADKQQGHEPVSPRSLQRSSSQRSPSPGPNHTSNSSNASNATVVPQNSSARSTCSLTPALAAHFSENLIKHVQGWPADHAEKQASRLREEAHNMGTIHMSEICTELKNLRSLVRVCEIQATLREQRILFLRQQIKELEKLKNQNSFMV
UniProt Q96RL7: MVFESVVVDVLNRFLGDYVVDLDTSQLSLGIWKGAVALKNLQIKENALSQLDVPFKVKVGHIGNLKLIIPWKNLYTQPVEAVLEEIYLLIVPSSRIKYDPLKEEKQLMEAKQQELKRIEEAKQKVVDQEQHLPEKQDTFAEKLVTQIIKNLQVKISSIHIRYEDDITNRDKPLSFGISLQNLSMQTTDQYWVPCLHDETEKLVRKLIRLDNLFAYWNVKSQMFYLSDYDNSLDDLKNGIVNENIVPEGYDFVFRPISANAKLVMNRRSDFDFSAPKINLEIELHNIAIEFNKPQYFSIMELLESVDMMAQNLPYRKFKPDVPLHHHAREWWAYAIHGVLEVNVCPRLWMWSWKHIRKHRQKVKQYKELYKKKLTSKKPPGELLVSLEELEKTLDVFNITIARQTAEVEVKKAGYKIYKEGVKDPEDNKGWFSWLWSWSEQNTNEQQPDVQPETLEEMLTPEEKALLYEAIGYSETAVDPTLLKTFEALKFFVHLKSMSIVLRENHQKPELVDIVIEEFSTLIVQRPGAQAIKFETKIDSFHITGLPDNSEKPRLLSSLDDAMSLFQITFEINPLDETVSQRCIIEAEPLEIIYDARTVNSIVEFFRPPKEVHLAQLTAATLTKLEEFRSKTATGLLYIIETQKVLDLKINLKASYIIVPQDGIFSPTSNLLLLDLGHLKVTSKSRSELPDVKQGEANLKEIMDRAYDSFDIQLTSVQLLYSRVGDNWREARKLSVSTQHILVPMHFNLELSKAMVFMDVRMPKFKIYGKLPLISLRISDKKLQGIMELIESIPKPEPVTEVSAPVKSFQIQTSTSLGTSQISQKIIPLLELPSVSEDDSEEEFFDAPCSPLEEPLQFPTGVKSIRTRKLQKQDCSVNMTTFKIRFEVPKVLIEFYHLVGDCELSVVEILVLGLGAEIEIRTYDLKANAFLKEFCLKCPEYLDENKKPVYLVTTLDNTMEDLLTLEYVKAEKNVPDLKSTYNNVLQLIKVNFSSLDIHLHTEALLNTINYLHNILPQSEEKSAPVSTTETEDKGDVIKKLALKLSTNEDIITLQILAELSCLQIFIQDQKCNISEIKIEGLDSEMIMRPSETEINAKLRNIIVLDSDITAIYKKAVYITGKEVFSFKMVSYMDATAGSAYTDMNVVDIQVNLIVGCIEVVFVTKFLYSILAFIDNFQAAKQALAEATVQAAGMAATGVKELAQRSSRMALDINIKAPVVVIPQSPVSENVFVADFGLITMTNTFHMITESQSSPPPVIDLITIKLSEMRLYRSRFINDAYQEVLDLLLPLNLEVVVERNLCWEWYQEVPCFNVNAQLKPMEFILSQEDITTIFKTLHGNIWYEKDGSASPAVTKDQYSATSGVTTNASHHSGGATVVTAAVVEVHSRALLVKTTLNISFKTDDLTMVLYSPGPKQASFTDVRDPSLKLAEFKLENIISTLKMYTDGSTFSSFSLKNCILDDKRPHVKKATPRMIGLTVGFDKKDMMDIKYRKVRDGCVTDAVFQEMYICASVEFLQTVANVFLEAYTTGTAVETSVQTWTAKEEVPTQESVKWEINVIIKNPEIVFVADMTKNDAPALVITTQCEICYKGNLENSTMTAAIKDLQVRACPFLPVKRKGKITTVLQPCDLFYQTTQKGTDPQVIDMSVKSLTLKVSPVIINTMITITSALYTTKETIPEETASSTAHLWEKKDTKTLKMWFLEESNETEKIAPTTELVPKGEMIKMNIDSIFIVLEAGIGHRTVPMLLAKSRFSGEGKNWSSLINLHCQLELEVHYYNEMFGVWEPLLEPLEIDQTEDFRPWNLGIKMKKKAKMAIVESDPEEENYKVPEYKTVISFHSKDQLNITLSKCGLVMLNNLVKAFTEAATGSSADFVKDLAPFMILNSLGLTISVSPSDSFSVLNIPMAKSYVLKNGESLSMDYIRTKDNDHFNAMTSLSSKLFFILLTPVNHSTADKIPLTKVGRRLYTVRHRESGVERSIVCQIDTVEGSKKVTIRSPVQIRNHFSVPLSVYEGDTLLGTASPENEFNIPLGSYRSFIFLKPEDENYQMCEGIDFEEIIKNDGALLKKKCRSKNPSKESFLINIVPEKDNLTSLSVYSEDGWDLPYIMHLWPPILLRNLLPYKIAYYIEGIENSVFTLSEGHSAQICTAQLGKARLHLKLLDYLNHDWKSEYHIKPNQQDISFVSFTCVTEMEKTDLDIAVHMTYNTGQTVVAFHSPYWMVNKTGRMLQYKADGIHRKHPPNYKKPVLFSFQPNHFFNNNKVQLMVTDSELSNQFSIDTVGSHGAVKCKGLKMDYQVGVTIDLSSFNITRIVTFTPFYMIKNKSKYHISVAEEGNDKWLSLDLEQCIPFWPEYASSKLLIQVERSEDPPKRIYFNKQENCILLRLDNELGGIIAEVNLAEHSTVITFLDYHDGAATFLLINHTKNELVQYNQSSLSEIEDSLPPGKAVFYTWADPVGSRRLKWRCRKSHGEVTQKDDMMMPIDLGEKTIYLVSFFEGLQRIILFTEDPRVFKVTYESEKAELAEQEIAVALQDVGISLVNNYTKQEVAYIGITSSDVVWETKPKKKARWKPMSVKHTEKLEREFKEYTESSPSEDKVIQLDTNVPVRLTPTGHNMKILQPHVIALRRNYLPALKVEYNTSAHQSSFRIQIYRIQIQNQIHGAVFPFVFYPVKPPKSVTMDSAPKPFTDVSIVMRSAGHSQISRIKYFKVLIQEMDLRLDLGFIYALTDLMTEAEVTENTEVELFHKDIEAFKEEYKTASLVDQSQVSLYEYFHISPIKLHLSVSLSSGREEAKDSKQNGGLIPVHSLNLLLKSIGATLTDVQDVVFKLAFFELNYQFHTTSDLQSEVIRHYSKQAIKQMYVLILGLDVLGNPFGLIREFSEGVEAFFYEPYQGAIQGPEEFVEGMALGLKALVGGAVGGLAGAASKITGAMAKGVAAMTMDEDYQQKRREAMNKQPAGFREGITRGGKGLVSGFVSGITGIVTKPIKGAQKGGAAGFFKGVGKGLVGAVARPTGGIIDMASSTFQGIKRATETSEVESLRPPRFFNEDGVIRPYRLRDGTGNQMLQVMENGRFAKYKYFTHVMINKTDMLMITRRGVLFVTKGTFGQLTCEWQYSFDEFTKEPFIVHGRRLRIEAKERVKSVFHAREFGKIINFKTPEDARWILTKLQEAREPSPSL
UniProt Q9H6R7: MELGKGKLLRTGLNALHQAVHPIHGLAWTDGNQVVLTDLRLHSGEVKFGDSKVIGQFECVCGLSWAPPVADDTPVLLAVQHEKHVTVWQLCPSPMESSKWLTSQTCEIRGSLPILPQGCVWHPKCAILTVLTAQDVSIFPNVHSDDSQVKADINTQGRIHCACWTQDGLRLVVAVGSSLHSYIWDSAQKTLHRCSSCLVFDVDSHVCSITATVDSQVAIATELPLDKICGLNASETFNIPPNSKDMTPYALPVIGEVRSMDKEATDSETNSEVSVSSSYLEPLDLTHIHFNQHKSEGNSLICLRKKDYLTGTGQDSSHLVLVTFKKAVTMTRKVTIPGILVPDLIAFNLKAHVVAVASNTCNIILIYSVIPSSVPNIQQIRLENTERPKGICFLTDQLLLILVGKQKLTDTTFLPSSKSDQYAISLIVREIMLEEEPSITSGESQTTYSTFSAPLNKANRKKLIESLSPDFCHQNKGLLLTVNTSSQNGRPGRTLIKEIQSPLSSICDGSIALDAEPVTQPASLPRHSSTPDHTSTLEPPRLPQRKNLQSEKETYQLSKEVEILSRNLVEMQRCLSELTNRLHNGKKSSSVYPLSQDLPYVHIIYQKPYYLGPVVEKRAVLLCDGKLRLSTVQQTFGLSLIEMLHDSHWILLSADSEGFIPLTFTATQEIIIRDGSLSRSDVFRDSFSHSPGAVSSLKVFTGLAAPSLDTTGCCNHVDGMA
UniProt Q9UK41: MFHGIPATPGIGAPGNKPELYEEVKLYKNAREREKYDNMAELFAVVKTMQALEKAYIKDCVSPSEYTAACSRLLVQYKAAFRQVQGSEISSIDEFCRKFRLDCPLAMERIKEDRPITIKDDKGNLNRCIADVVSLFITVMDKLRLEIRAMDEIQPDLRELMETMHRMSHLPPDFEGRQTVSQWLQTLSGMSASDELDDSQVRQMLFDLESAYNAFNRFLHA

Key:
Test in all cases: log2 fold change, soluble protein after heating vs DMSO (PISA); higher = thermal stabilisation; K562 lysate, 10 uM; active = over 0.2 and 3.5 SD of the protein, either way, in both replicates (recomputed)
[1] = compound: C1=CC=C(C=C1)[C@H](COC2=CC3=C(C=C2)NC(=O)N3)NC(=O)C4=CC=CN(C4=O)CC5=CC(=C(C=C5)F)F
Outline: (§1)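 Quantification was by TMTpro 16plex LC-MS/MS with equalised channel sums, applied to the supernatant after 21,000xg for 90 min. Samples were crude K562 extract at 1 mg/mL protein in PBS pH 7.4 with 1 mM MgCl2, treated with 10 μM compound for 30 min, heated for 3 min across 48°C-58°C, pooled and brought to 0.5% NP-40 at 4°C. Values are log-two fold changes in thermal stability relative to solvent controls, from duplicates.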

[2] = compound: CC1=C(SC2=C1C(=N[C@H](C3=NN=C(N32)C)CC(=O)N)C4=CC=C(C=C4)Cl)C
Outline: as §1

[3] = compound: CC1=C2C(=CC=C1)N=C(N(C2=O)C3=CC=CC=C3C)CN4C=NC5=C(N=CN=C54)N
Outline: as §1

[4] = compound: Cc1sc2c(c1C)C(c1ccc(Cl)cc1)=N[C@@H](CC(=O)OC(C)(C)C)c1nnc(C)n1-2
Outline: as §1

[5] = compound: c1ccc([C@@H]2C[C@H]2NC2CCNCC2)cc1
Outline: as §1

Measured: log2 fold change

WDR77 (UniProt Q9BQA1)
inactive: [1] 0.02 | [2] 0.012 | [3] 0.012 | [4] 0.006 | [5] 0.006

WNK4 (UniProt Q96J92)
inactive: [1] -0.074 | [2] 0 | [3] -0.045 | [4] -0.086 | [5] 0.204

VPS16 (UniProt Q9H269)
inactive: [1] -0.035 | [2] -0.009 | [3] 0.041 | [4] 0.011 | [5] 0.005

WIPF3 (UniProt A6NGB9)
inactive: [1] 0.024 | [2] -0.016 | [3] -0.031 | [4] -0.057 | [5] -0.06

WDR70 (UniProt Q9NW82)
inactive: [1] 0.046 | [2] 0 | [3] 0.006 | [4] 0.002 | [5] 0.014

VPS35L (UniProt Q7Z3J2)
inactive: [1] 0.013 | [2] 0.004 | [3] 0.044 | [4] -0.032 | [5] 0.013

WDR12 (UniProt Q9GZL7)
inactive: [1] 0.011 | [2] 0.013 | [3] 0.009 | [4] -0.009 | [5] -0.033

WDR13 (UniProt Q9H1Z4)
inactive: [1] -0.009 | [2] 0.033 | [3] 0.037 | [4] 0.047 | [5] 0.032

WDSUB1 (UniProt Q8N9V3)
inactive: [1] 0.037 | [2] -0.005 | [3] -0.026 | [4] 0 | [5] -0.064

WRAP73 (UniProt Q9P2S5)
inactive: [1] 0.018 | [2] -0.034 | [3] -0.052 | [4] -0.025 | [5] 0.017

WASL (UniProt O00401)
inactive: [1] -0.031 | [2] 0.036 | [3] 0.054 | [4] 0.073 | [5] 0.037

WDR62 isoform 4 (UniProt O43379)
inactive: [1] 0.026 | [2] -0.004 | [3] -0.011 | [4] 0.003 | [5] 0.038

VMA21 (UniProt Q3ZAQ7)
inactive: [1] 0 | [2] 0.003 | [3] -0.014 | [4] 0.042 | [5] -0.037

WARS2 (UniProt Q9UGM6)
inactive: [1] 0.01 | [2] 0.026 | [3] 0.018 | [4] 0.02 | [5] 0.039

VPS37B (UniProt Q9H9H4)
inactive: [1] 0.028 | [2] 0.039 | [3] 0.01 | [4] -0.01 | [5] 0.064

WAPL isoform 3 (UniProt Q7Z5K2)
inactive: [1] 0.014 | [2] 0.013 | [3] 0.025 | [4] -0.018 | [5] -0.048

VKORC1 (UniProt Q9BQB6)
inactive: [1] -0.02 | [2] 0.134 | [3] 0.01 | [4] 0.029 | [5] 0.005

WDR7 (UniProt Q9Y4E6)
inactive: [1] 0.055 | [2] 0.011 | [3] 0.019 | [4] 0.029 | [5] -0.027

WDR18 (UniProt Q9BV38)
inactive: [1] 0.014 | [2] 0.043 | [3] -0.003 | [4] 0.002 | [5] 0.012

WDR89 (UniProt Q96FK6)
inactive: [1] -0.001 | [2] 0.134 | [3] 0.097 | [4] 0.048 | [5] -0.006

WAC (UniProt Q9BTA9)
inactive: [1] -0.03 | [2] 0.056 | [3] -0.013 | [4] 0.041 | [5] 0.037

WBP4 (UniProt O75554)
inactive: [1] 0.002 | [2] -0.001 | [3] -0.035 | [4] -0.054 | [5] 0

VPS13A (UniProt Q96RL7)
inactive: [1] -0.056 | [2] 0.049 | [3] 0.018 | [4] 0.049 | [5] 0.045

VPS18 (UniProt Q9P253)
inactive: [1] -0.014 | [2] 0.013 | [3] 0.032 | [4] 0.067 | [5] 0.012

WDR26, A0A499FIZ0
inactive: [1] 0.009 | [2] -0.019 | [3] 0.003 | [4] 0.009 | [5] -0.018

WDR46 (UniProt O15213)
inactive: [1] -0.023 | [2] 0.016 | [3] -0.003 | [4] -0.038 | [5] -0.01

WDR41 (UniProt Q9HAD4)
inactive: [1] 0.043 | [2] 0.013 | [3] 0.02 | [4] -0.047 | [5] -0.012

XAB2 (UniProt Q9HCS7)
inactive: [1] -0.009 | [2] 0.05 | [3] 0 | [4] -0.018 | [5] 0.035

XPA (UniProt P23025)
inactive: [1] 0.01 | [2] -0.016 | [3] 0.042 | [4] -0.022 | [5] -0.13

WNK1 isoform 7 (UniProt Q9H4A3)
inactive: [1] -0.016 | [2] 0.004 | [3] 0.022 | [4] -0.074 | [5] 0.018

WIPF2 (UniProt Q8TF74)
inactive: [1] 0.037 | [2] -0.016 | [3] 0.015 | [4] -0.011 | [5] -0.054

VWA8 (UniProt A3KMH1)
inactive: [1] -0.036 | [2] 0.069 | [3] -0.162 | [4] -0.013 | [5] 0.199

WDR45B (UniProt Q5MNZ6)
inactive: [1] 0.014 | [2] -0.025 | [3] -0.039 | [4] -0.007 | [5] -0.104

WDCP (UniProt Q9H6R7)
inactive: [1] 0.023 | [2] 0.068 | [3] -0.04 | [4] 0.049 | [5] 0.025

VPS25 (UniProt Q9BRG1)
inactive: [1] -0.046 | [2] -0.002 | [3] 0.027 | [4] 0.009 | [5] 0.105

VPS37C (UniProt A5D8V6)
inactive: [1] 0.032 | [2] -0.075 | [3] -0.038 | [4] -0.021 | [5] 0.031

WRNIP1 (UniProt Q96S55)
inactive: [1] -0.051 | [2] -0.033 | [3] 0.024 | [4] 0.016 | [5] 0.06

WDR4 (UniProt P57081)
inactive: [1] 0.034 | [2] -0.015 | [3] 0.019 | [4] -0.024 | [5] -0.026

WDR48 (UniProt Q8TAF3)
inactive: [1] 0.023 | [2] -0.002 | [3] 0.018 | [4] -0.029 | [5] -0.04

WWC2 isoform 6 (UniProt Q6AWC2)
inactive: [1] -0.112 | [2] 0.04 | [3] 0.012 | [4] -0.016 | [5] -0.03

WIPI2 (UniProt Q9Y4P8)
inactive: [1] 0.03 | [2] -0.033 | [3] -0.008 | [4] -0.055 | [5] -0.096

VPS53 isoform 4 (UniProt Q5VIR6)
inactive: [1] -0.016 | [2] 0.005 | [3] 0.011 | [4] 0.008 | [5] 0.019

VPS35 (UniProt Q96QK1)
inactive: [1] 0.012 | [2] -0.011 | [3] 0.001 | [4] -0.009 | [5] 0.031

VWA5A (UniProt O00534)
inactive: [1] 0.059 | [2] 0.022 | [3] 0.023 | [4] 0.015 | [5] -0.085

Three neighbouring entries out of the list so far, quoted:
VPS35L (UniProt Q7Z3J2)
inactive: [1] 0.013 | [2] 0.004 | [3] 0.044 | [4] -0.032 | [5] 0.013

WDR12 (UniProt Q9GZL7)
inactive: [1] 0.011 | [2] 0.013 | [3] 0.009 | [4] -0.009 | [5] -0.033

WDR13 (UniProt Q9H1Z4)
inactive: [1] -0.009 | [2] 0.033 | [3] 0.037 | [4] 0.047 | [5] 0.032

Additional results.

VPS26C (UniProt O14972)
inactive: [1] 0.014 | [2] -0.045 | [3] 0.013 | [4] -0.076 | [5] -0.063

VPS28 (UniProt Q9UK41)
inactive: [1] -0.087 | [2] -0.04 | [3] -0.013 | [4] 0.073 | [5] 0

WIZ isoform 3 (UniProt O95785)
inactive: [1] 0.005 | [2] 0.001 | [3] -0.023 | [4] -0.008 | [5] -0.004

WTAP (UniProt Q15007)
inactive: [1] 0.001 | [2] 0.036 | [3] 0.005 | [4] -0.047 | [5] 0.021

WDR92 (UniProt Q96MX6)
inactive: [1] -0.051 | [2] -0.034 | [3] -0.007 | [4] 0.045 | [5] -0.047

WDR3 (UniProt Q9UNX4)
inactive: [1] 0.039 | [2] -0.026 | [3] 0.006 | [4] -0.014 | [5] 0.056

WDR91 (UniProt A4D1P6)
inactive: [1] -0.009 | [2] 0.027 | [3] 0.009 | [4] -0.02 | [5] 0.026

VTN (UniProt P04004)
inactive: [1] -0.009 | [2] -0.039 | [3] -0.094 | [4] -0.053 | [5] -0.222

WRN (UniProt Q14191)
inactive: [1] 0.006 | [2] -0.017 | [3] 0.009 | [4] 0.01 | [5] 0.006
